According to the supplement of paper PMC3334620:
In all, about 33,000 sequences were measured (“E-score (-0.5 to 0.5)”: median about -0.0034, highest 2% from about 0.25 on). The list shows a part of the results.

Target: T1, Yap3 (UniProt P38749)
T1 sequence: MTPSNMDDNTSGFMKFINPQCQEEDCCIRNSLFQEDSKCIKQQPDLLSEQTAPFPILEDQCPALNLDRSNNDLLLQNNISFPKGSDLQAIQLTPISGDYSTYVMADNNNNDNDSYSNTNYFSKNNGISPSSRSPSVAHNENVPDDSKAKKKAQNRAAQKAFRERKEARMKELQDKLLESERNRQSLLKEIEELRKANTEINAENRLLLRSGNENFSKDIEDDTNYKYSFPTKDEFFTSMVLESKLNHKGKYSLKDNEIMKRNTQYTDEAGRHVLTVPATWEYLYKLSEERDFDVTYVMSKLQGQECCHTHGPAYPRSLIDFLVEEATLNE
Assay: PBM E-score (8-mer binding enrichment) (E-score (-0.5 to 0.5)); higher = stronger / more preferred TF binding
Settings: protein concentration: 100 nM; construct: GST-full length
Experimental: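 Universal 'all 10-mer' protein binding microarrays (Agilent AMADID 015681) probed with GST-tagged S. cerevisiae TFs (full-length or DBD) made by in vitro transcription/translation (PURExpress), about 100-200 nM. Bound TF was detected with fluorescent anti-GST. Each ungapped 8-mer (which stands for itself and its reverse complement) is scored by the PBM enrichment score (E-score), a modified Wilcoxon-Mann-Whitney statistic from -0.5 to +0.5, computed with the Universal PBM Analysis Suite. Scale: above 0.35 generally sequence-specific binding.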

Sequence | PBM E-score
CGTGGTAG | -0.0485
AAATCCGA | 0.0924
AGCTCAGG | -0.0122
AGTTTTGG | 0.119
CCTTGTAC | -0.0735
CCCCATAC | -0.103
CACTATAA | -0.00697
ATATACTC | 0.126
AGCGTATA | 0.196
AAGCCGGC | 0.00759
GGAACCAC | -0.0635
CATCCAGG | -0.129
CCAAGGTC | -0.0728
GCGGTCTA | -0.00917
AGCAATTG | 0.0843
ACGCAGCT | -0.0552
ACCATAGC | -0.0441
AAAAGCAC | -0.0154
AAAAATTC | 0.0453
ACACGTTA | 0.0573
CACGTGCG | -0.0489
CACCTCCA | 0.0298
CTTGTTGC | 0.0294
ATTAGCCG | 0.105
TAACAACA | 0.169

Sequence | PBM E-score
TATACCGA | 0.155
CCAGCAAA | 0.0803
ATTGACAA | -0.0498
AAATACTA | 0.141
AAATTTGC | 0.0617
CCGCTGTC | -0.0387
CACGTAAG | 0.0981
AAGCCTGC | -0.112
CGAGTCCC | -0.0887
AAACCCAC | 0.0806
ACATTGTC | 0.261
ATAGCTGG | -0.153
AGGGGCGG | -0.0967
ACCTAGCG | -0.0647
CAATAGGG | -0.00825
CGTATGAC | -0.0555
ATAATCAG | 0.126
CATGGGTA | -0.0959
GGCTCGAA | -0.113
TCTACCCA | 0.0609
GATGAAGC | -0.0629
GAGGACCC | -0.298
GTCTGGTA | 0.0119
AGATTAAC | 0.104
ATACCAGG | -0.0411

Part of the list above in a different format:
Sequence	PBM E-score
CGAGTCCC	-0.0887
AAACCCAC	0.0806

(list continues)

Sequence | PBM E-score
CCACGGGC | -0.149
ACCGCAGC | -0.18
ACAATTGA | 0.219
ACGCAGAA | 0.131
GTTTAAGA | -0.0881
CCCGCTCG | -0.262
AGTTTGAA | 0.141
CTCTCAGC | -0.122
ATATTGTA | 0.192
CCTTACCG | -0.124
AGCTCTAA | 0.0114
CTCAAGAG | -0.328
CACTAATA | 0.225
AGACACCT | -0.0593
AGCATGCA | 0.00046
ATAGTTAG | 0.159
TAGGATGA | 0.196
GTATTGTA | 0.174
ATGTAGAC | -0.124
AAGCCAAG | -0.0751
CATCGATG | 0.00555
ATAGTACG | 0.176
CAATGATC | -0.0423
ATTGGACA | 0.188
CACACGGA | -0.0988

A run of entries from further up, for reference:
Sequence | PBM E-score
AAATCCGA | 0.0924
AGCTCAGG | -0.0122
AGTTTTGG | 0.119
CCTTGTAC | -0.0735

Further records

Sequence | PBM E-score
GGGCTACC | -0.291
CTGCGACA | 0.109
CTAACACA | 0.146
CCCGAGCC | -0.12
GGAGCGCC | -0.292
CCTCCGAC | -0.295
CCACTACC | -0.0927
CTATTATA | 0.145
ATGTTAGA | -0.0124
CACTAGGA | -0.21
TATTGGCA | 0.17
AAGCACTA | 0.0641
TCGCCCCA | -0.0688
AACTACGA | 0.0343
GCTCCTTA | 0.0472
AGCTGCAG | 0.0196
CCTAAAGG | -0.296
GTTTTAGA | 0.0499
CCAGGATC | -0.0532
ATCACTCG | 0.0758
AGACTGCA | -0.173
AGCAGGTC | -0.113
AACAGGAA | 0.192
CCAGTCCA | -0.301
CCCAAATC | -0.181

Sequence | PBM E-score
CATCTGTC | -0.0896
CCGATTAA | 0.0516
GCCGTCCC | -0.221
GCGCCAAA | 0.0199
GTCGCACA | -0.0581
GCCTCCGC | -0.251
CCTCGGAC | -0.0674
ACTCGACG | 0.0995
ACATCGTC | 0.0182
CATTGTCC | 0.152
CGTAACCC | -0.0525
AATACTTC | 0.0594
CGATGAAA | 0.151
CAAATCAC | 0.0668
AGATGCCT | -0.16
AGTAAACG | 0.0328
CATATGGG | 0.074
AATTTCGA | -0.00117
ATAGGAGC | -0.0665
GAAGAGAA | 0.0793
AAGACGGA | -0.0853
CTCGACCC | -0.173
TATCTGAA | 0.00285
ATAGGCTA | -0.0511
CCTAATTC | 0.036

Sequence | PBM E-score
TGCAGGAA | 0.123
AAAAACCG | 0.0201
GTAGATTA | 0.245
CTAGACAC | -0.116
CAACTTTC | 0.132
GAGAGGTA | -0.0637
ACCTCTAC | 0.121
GGACCCCA | -0.129
CGGTGCAG | -0.157
CTCTTTGC | 0.00066
AACAGTTC | 0.0834
GTTAACAA | 0.205
TGCGCCAA | -0.024
CGGGGTCA | -0.139
CCTGGGAC | -0.282
ACTGGGTC | -0.257
TGGCGCCA | -0.116
ATGGTATA | 0.262
GGAAAGAA | 0.0609
AACAAGTA | 0.0882
CCCTCCCA | -0.00238
AACCTCTG | -0.137
CGTCTCAA | -0.0422
AAAGAAAA | 0.18
ATTCTAAC | 0.109

Quoted from the listing.
Entry of CGTCTCAA under PBM E-score: -0.0422
Entry of CTCTTTGC under PBM E-score: 0.00066
Entry of ACCTCTAC under PBM E-score: 0.121

Remaining list, next part:

Sequence | PBM E-score
GTAATAGA | 0.223
GCTTACGA | 0.219
CAATAGCA | -0.128
ACTACGCC | -0.303
ATAACATC | 0.165
AGTATACG | 0.142
AATTTACA | 0.155
CCCCTTAC | -0.0967
GCTATACA | 0.033
ACCATAGT | 0.065
GTGTCTTA | -0.0355
ATGGGAAA | 0.0297
CAAAAGTC | 0.0469
ATAGCTCC | -0.0147
CACTCCAA | -0.141
CGCCATCC | -0.247
GTAAACAA | 0.248
CTTCCGGA | -0.154
GTTCAATA | 0.0871
CTTTCTTA | 0.104
AAGATCCA | -0.135
TATCCCCA | 0.127
